Assay results published in the supplement of paper PMC10849652.
The other results are listed elsewhere or left out.

By UniProt entry, the sequences of proteins in these tests, tags left out. Where a name states a change or a piece, a line headed by the entry shows the natural chain unless it says otherwise.
UniProt O95822: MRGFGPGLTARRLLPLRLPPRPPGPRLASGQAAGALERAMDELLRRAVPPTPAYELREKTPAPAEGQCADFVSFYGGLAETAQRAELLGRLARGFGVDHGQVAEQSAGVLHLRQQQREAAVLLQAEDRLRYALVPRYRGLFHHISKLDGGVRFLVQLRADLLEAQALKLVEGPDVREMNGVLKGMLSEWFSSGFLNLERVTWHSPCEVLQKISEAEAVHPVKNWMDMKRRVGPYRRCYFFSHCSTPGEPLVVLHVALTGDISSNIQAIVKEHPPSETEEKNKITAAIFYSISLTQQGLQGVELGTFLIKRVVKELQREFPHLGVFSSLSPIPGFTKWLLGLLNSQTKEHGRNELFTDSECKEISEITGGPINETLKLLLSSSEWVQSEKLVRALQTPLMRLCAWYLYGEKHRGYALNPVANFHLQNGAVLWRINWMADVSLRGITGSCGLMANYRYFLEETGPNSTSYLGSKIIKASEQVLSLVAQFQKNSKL
UniProt Q8IY33: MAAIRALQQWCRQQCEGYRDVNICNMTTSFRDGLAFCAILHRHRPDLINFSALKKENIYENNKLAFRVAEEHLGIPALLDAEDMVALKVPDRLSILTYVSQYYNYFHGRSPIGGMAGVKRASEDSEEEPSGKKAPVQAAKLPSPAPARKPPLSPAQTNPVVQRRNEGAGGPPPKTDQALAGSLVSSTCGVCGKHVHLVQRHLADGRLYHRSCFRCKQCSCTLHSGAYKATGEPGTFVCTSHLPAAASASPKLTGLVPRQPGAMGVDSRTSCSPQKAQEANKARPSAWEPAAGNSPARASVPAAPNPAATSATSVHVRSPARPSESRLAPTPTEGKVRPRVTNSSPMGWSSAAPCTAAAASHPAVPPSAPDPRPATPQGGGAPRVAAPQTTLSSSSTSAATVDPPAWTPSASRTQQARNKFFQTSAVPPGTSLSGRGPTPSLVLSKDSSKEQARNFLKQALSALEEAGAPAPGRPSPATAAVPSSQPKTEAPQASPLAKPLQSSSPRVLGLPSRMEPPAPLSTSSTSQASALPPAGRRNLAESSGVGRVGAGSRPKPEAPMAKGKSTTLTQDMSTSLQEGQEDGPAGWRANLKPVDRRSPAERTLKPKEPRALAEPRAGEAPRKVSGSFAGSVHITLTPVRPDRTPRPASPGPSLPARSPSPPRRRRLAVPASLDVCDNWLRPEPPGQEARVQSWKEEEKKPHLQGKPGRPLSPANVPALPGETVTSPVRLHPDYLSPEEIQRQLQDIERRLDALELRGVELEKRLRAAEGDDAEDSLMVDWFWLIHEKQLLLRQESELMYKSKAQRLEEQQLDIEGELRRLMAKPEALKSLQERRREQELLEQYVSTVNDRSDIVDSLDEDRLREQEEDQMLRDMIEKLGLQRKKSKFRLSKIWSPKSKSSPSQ
UniProt Q9NPA3, whole entry, looked up: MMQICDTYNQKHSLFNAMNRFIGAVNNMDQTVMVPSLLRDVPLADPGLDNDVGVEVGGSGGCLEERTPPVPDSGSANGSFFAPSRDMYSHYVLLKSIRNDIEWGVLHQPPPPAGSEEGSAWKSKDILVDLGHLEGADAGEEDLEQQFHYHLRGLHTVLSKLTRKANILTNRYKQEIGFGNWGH
UniProt Q8TAP9: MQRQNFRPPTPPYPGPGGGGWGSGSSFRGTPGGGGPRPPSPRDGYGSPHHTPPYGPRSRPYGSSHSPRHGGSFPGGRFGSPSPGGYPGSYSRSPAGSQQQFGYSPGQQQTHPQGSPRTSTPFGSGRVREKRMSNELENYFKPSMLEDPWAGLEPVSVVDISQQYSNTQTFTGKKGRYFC
UniProt Q9UH92: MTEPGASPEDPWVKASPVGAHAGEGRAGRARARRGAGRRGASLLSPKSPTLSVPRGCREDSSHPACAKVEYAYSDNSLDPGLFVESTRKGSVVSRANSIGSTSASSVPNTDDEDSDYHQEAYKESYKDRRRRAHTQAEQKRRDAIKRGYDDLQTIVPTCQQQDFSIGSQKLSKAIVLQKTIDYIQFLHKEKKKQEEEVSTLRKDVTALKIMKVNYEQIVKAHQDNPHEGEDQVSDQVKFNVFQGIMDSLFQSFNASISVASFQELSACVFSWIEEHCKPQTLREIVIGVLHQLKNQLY
UniProt Q7Z3U7: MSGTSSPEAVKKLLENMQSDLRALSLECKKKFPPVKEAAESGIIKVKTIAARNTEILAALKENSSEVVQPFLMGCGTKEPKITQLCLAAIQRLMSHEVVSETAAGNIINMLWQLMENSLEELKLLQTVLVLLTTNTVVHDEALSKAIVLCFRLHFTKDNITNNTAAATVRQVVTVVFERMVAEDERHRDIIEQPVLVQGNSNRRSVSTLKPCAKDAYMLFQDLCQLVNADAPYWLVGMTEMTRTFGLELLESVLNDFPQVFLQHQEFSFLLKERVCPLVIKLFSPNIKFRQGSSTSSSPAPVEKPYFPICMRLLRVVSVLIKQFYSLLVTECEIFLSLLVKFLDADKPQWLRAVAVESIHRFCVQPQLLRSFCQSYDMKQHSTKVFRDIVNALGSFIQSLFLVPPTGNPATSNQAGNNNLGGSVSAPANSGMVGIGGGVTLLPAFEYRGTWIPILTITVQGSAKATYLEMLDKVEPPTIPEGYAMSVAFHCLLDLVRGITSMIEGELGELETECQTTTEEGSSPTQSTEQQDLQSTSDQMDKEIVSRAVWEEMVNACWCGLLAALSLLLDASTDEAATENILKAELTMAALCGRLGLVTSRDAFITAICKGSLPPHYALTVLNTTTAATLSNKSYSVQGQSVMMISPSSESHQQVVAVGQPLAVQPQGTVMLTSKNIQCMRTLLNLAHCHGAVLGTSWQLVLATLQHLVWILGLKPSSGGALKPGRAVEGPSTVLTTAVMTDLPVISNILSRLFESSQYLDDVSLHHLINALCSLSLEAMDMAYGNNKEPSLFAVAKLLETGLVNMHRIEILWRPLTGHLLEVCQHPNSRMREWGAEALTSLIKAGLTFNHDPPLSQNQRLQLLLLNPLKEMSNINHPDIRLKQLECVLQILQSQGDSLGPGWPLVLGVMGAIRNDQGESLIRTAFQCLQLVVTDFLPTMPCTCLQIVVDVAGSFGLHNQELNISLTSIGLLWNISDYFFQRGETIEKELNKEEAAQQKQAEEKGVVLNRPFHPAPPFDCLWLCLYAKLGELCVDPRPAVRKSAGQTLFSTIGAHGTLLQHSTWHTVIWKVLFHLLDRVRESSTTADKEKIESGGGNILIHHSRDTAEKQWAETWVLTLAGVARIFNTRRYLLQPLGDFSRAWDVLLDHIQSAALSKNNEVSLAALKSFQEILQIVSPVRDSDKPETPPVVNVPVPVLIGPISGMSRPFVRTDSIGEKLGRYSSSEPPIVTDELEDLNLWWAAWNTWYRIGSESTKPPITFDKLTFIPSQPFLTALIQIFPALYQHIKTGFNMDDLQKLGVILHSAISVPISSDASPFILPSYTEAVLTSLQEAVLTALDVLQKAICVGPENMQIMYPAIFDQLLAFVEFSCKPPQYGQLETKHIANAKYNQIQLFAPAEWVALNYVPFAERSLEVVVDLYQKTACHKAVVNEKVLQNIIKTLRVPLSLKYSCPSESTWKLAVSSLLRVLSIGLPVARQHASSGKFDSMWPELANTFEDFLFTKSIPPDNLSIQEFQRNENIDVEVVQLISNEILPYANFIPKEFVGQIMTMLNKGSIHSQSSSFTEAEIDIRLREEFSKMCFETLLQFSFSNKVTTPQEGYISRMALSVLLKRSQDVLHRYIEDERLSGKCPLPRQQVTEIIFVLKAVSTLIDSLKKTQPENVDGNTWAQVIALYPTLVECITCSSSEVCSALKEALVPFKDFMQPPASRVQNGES
UniProt Q567V2: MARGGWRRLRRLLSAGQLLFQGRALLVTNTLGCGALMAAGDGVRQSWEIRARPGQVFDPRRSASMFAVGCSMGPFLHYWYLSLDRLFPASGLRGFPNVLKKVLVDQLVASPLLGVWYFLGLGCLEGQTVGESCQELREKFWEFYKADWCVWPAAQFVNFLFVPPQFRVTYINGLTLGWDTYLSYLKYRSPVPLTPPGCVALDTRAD
UniProt Q86VX9: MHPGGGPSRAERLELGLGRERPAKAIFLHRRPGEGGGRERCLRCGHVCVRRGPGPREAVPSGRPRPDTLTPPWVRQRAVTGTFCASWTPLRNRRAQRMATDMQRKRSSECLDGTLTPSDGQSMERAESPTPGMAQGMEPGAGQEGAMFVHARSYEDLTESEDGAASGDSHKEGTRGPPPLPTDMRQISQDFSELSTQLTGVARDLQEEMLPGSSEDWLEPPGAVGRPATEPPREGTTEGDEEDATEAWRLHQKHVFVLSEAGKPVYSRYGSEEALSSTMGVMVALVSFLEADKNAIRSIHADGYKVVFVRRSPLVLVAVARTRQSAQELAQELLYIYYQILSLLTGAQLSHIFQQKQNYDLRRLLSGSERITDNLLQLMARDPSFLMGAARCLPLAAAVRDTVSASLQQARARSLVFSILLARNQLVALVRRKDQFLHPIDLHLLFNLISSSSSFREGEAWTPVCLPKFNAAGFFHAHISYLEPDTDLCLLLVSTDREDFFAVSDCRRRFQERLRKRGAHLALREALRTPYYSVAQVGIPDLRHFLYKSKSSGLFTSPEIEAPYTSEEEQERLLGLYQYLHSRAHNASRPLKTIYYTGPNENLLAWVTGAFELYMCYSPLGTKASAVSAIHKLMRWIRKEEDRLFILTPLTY
UniProt Q96EN8: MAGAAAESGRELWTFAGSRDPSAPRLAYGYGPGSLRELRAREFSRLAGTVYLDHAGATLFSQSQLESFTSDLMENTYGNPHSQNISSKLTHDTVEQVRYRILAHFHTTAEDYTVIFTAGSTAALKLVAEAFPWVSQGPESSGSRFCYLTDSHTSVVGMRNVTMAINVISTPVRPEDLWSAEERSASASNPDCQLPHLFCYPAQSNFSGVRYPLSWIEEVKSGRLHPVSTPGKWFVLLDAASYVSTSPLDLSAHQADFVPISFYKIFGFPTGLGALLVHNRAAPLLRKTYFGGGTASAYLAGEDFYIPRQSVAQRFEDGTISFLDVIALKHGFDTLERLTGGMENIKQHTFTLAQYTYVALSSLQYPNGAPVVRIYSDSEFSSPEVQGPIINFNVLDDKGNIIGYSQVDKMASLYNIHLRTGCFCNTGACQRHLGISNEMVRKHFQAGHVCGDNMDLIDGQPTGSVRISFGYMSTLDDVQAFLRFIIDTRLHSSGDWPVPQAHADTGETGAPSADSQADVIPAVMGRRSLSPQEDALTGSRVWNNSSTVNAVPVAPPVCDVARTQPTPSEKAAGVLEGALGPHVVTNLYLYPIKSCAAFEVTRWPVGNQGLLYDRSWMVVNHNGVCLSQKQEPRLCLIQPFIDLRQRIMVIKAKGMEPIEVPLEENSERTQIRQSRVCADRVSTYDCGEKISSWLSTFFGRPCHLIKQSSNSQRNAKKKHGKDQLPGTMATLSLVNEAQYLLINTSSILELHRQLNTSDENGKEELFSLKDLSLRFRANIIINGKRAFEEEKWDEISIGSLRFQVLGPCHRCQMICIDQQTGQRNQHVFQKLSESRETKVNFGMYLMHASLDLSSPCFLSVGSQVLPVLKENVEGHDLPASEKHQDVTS
UniProt Q5XKP0: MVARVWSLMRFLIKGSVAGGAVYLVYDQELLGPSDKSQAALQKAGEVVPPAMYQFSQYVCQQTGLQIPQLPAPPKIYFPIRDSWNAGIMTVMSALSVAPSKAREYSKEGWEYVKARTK
UniProt Q13015: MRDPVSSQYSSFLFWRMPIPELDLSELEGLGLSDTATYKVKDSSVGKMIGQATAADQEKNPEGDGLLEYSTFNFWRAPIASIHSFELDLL
UniProt Q00013: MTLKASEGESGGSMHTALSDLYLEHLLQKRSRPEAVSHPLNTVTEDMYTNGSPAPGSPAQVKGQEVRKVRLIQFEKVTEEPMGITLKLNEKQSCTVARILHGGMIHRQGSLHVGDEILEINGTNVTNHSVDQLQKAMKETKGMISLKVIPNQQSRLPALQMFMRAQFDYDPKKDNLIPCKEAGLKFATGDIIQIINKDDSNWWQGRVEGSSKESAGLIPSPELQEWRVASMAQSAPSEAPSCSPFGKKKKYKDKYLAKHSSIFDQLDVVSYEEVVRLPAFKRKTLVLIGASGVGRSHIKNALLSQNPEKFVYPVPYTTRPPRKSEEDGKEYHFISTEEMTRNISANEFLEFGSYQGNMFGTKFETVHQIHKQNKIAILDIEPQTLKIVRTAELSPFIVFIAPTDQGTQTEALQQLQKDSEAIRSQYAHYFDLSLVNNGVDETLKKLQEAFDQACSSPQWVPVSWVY
UniProt Q9Y605: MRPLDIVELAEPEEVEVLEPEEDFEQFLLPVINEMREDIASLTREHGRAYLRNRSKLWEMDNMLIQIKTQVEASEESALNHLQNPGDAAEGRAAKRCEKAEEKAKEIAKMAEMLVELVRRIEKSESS

How the values were obtained:
Assay in all cases: log2 fold change, soluble protein after heating vs DMSO (PISA); higher = thermal stabilisation; K562 cells, 10 uM, 30 min; active = over 0.2 and 3.5 SD of the protein, either way, in both replicates (recomputed)
bafetinib = compound: Cc1ccc(NC(=O)c2ccc(CN3CC[C@H](N(C)C)C3)c(C(F)(F)F)c2)cc1Nc1nccc(-c2cncnc2)n1 [bafetinib]
Summary of the method: (§1)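 Quantification of soluble protein used TMTpro 16plex LC-MS/MS, with channel sums equalised. Samples were the supernatant after 21,000xg for 90 min of pooled aliquots from K562 cells (2×10^6 cells/mL) treated with 10 μM compound for 30 min, heated for 3 min over 48°C-58°C, and extracted in PBS with 0.5% NP-40 at 4°C. Values, from duplicates, describe thermal stability against control samples on a log2 fold-change scale.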

[1] = compound: Cc1cccc(CC(=O)N2CCc3c2ccc(-c2cn(C)c4ncnc(N)c24)c3F)n1
Summary of the method: as §1

nilotinib = compound: Cc1cn(-c2cc(NC(=O)c3ccc(C)c(Nc4nccc(-c5cccnc5)n4)c3)cc(C(F)(F)F)c2)cn1 [nilotinib]
Summary of the method: as §1

[2] = compound: Cc1nc(Nc2n[nH]c3c2CN(C(=O)N[C@H](CN(C)C)c2ccccc2)C3(C)C)c2sccc2n1
Summary of the method: as §1

dasatinib = compound: Cc1nc(Nc2ncc(C(=O)Nc3c(C)cccc3Cl)s2)cc(N2CCN(CCO)CC2)n1 [dasatinib]
Summary of the method: as §1

[3] = compound: Cc1ncc(-c2ccnc(Nc3ccc(S(C)(=O)=O)cc3)n2)n1C(C)C
Summary of the method: as §1

[4] = compound: Cn1cc(-c2ccc3c(c2)CCN3C(=O)Cc2cccc(C(F)(F)F)c2)c2c(N)ncnc21
Summary of the method: as §1

[5] = compound: Cn1cc(-c2ccc3nnc(C(F)(F)c4ccc5ncccc5c4)n3n2)cn1
Summary of the method: as §1

tipifarnib = compound: Cn1cncc1[C@@](N)(c1ccc(Cl)cc1)c1ccc2c(c1)c(-c1cccc(Cl)c1)cc(=O)n2C [tipifarnib]
Summary of the method: as §1

mubritinib = compound: FC(F)(F)c1ccc(/C=C/c2nc(COc3ccc(CCCCn4ccnn4)cc3)co2)cc1 [mubritinib]
Summary of the method: as §1

[6] = compound: NC(=O)Nc1cc(-c2cccc(F)c2)sc1C(=O)N[C@H]1CCCNC1
Summary of the method: as §1

[7] = compound: NC(=O)c1cnc(N[C@@H]2CCCC[C@@H]2N)nc1Nc1cccc(-n2nccn2)c1
Summary of the method: as §1

[8] = compound: NC1(c2ccc(-c3nc4ccn5c(=O)[nH]nc5c4cc3-c3ccccc3)cc2)CCC1
Summary of the method: as §1

[9] = compound: NCC(=O)Nc1ccc(-n2nc(C(F)(F)F)cc2-c2ccc3c(ccc4ccccc43)c2)cc1
Summary of the method: as §1

entinostat = compound: Nc1ccccc1NC(=O)c1ccc(CNC(=O)OCc2cccnc2)cc1 [entinostat]
Summary of the method: as §1

vorinostat = compound: O=C(CCCCCCC(=O)Nc1ccccc1)NO [vorinostat]
Summary of the method: as §1

citarinostat = compound: O=C(CCCCCCNC(=O)c1cnc(N(c2ccccc2)c2ccccc2Cl)nc1)NO [citarinostat]
Summary of the method: as §1

silmitasertib = compound: O=C(O)c1ccc2c(c1)nc(Nc1cccc(Cl)c1)c1ccncc12 [silmitasertib]
Summary of the method: as §1

[10] = compound: O=C1NC(=O)C(c2cnc3ccccn23)=C1c1cn2c3c(cc(F)cc13)CN(C(=O)N1CCCCC1)CC2
Summary of the method: as §1

[11] = compound: c1cc(OCCN2CCCCC2)cc(-c2n[nH]c3ccc(-c4nnc[nH]4)cc23)c1
Summary of the method: as §1

Measured: log2 fold change

MLYCD (UniProt O95822)
inactive: bafetinib 0.089 | [1] -0.201 | nilotinib -0.03 | [2] 0.013 | dasatinib -0.048 | [3] -0.049 | [4] 0.003 | [5] 0.08 | tipifarnib 0.04 | mubritinib 0.005 | [6] 0.082 | [7] -0.024 | [8] -0.041 | [9] -0.044 | entinostat -0.016 | vorinostat 0.025 | citarinostat 0.071 | silmitasertib -0.066 | [10] 0.056 | [11] 0.053

MICALL2 (UniProt Q8IY33)
inactive: bafetinib -0.098 | [1] -0.028 | nilotinib -0.011 | [2] -0.058 | dasatinib -0.039 | [3] -0.158 | [4] 0.146 | [5] 0.059 | tipifarnib 0.142 | mubritinib 0.166 | [6] 0.004 | [7] -0.026 | [8] -0.249 | [9] -0.081 | entinostat -0.017 | vorinostat 0.015 | citarinostat 0.023 | silmitasertib -0.097 | [10] -0.052 | [11] 0.015

MID1IP1 (UniProt Q9NPA3)
inactive: bafetinib 0.015 | [1] -0.071 | nilotinib -0.019 | [2] -0.056 | dasatinib -0.02 | [3] 0.002 | [5] 0.022 | tipifarnib 0.105 | mubritinib -0.306 | [6] 0.016 | [8] 0.1 | [9] 0.015 | entinostat -0.183 | vorinostat -0.12 | silmitasertib 0.025 | [10] 0.113

MPLKIP (UniProt Q8TAP9)
inactive: bafetinib 0.006 | [1] -0.071 | nilotinib -0.312 | [2] 0.021 | dasatinib -0.018 | [3] -0.135 | [4] 0.001 | [5] 0.027 | tipifarnib 0.108 | mubritinib -0.063 | [6] 0.048 | [7] -0.013 | [8] -0.06 | [9] 0.122 | entinostat 0.002 | vorinostat 0.022 | citarinostat -0.002 | silmitasertib 0.141 | [10] 0.207 | [11] -0.073

MRPL18 (UniProt Q9H0U6)
inactive: bafetinib 0.196 | [1] 0.156 | nilotinib -0.02 | [2] 0.147 | dasatinib -0.058 | [3] -0.042 | [4] -0.174 | [5] 0.042 | tipifarnib 0.163 | mubritinib 0.018 | [6] 0.033 | [8] 0.011 | [9] 0.121 | entinostat 0.021 | vorinostat 0.006 | citarinostat -0.086 | silmitasertib 0 | [10] 0.043 | [11] -0.101

MLX (UniProt Q9UH92)
inactive: bafetinib -0.022 | [1] 0.094 | nilotinib -0.11 | [2] -0.01 | dasatinib 0.008 | [3] -0.11 | [4] -0.054 | [5] -0.097 | tipifarnib -0.122 | mubritinib -0.061 | [6] 0.144 | [7] -0.115 | [8] -0.177 | entinostat 0.005 | vorinostat 0.095 | citarinostat 0.139 | silmitasertib -0.091 | [10] -0.086 | [11] -0.175

MRPL3 (UniProt P09001)
inactive: bafetinib 0.245 | [1] 0.118 | nilotinib -0.112 | [2] 0.268 | dasatinib 0.033 | [3] -0.024 | [4] -0.142 | [5] -0.028 | tipifarnib 0.049 | mubritinib 0.049 | [6] 0.055 | [7] 0.08 | [8] -0.008 | [9] 0.087 | entinostat 0.009 | vorinostat 0.033 | citarinostat 0.011 | silmitasertib 0.013 | [10] 0.01 | [11] -0.055

MON2 isoform 5 (UniProt Q7Z3U7)
inactive: bafetinib -0.001 | [1] 0.026 | nilotinib -0.053 | [2] -0.012 | dasatinib -0.132 | [3] 0.082 | [4] 0.008 | [5] 0.006 | tipifarnib -0.071 | mubritinib -0.03 | [6] -0.023 | [7] 0.012 | [8] -0.107 | [9] -0.038 | entinostat -0.003 | vorinostat 0.097 | citarinostat 0.056 | silmitasertib 0.021 | [10] -0.006 | [11] -0.003

MPV17L2 (UniProt Q567V2)
inactive: bafetinib 0.03 | [1] -0.068 | nilotinib 0.001 | [2] 0.063 | dasatinib 0.041 | [3] 0.022 | [4] 0.047 | [5] 0.002 | tipifarnib 0.086 | mubritinib -0.044 | [6] 0.007 | [7] 0.069 | [8] 0.078 | [9] -0.009 | entinostat 0.019 | vorinostat -0.027 | citarinostat 0.007 | silmitasertib -0.022 | [10] 0.103 | [11] -0.086

MON1A (UniProt Q86VX9)
inactive: bafetinib -0.011 | [1] -0.112 | nilotinib -0.163 | [2] -0.056 | dasatinib 0.017 | [3] 0.138 | [5] -0.009 | tipifarnib 0.082 | mubritinib -0.012 | [6] 0.016 | [8] 0.001 | entinostat -0.005 | vorinostat 0.017 | citarinostat 0.161 | silmitasertib -0.157 | [10] -0.013 | [11] -0.275

MOCOS (UniProt Q96EN8)
inactive: bafetinib -0.031 | [1] -0.026 | nilotinib 0.018 | [2] -0.062 | dasatinib -0.029 | [3] -0.017 | [4] 0.034 | [5] 0.049 | tipifarnib 0.013 | mubritinib 0.027 | [6] -0.057 | [7] 0.024 | [8] -0.068 | [9] -0.01 | entinostat -0.022 | vorinostat 0.01 | citarinostat -0.118 | silmitasertib 0.093 | [10] -0.135 | [11] -0.045

MICOS13 (UniProt Q5XKP0)
inactive: bafetinib -0.114 | [1] 0.014 | nilotinib -0.054 | [2] 0.025 | dasatinib -0.085 | [3] 0.001 | [4] 0.046 | [5] 0.056 | tipifarnib -0.111 | mubritinib 0.117 | [6] -0.018 | [7] -0.023 | [8] -0.119 | [9] 0.029 | entinostat 0.041 | vorinostat 0.018 | citarinostat 0.028 | silmitasertib -0.02 | [10] -0.106 | [11] 0.025

MRPL57 (UniProt Q9BQC6)
inactive: bafetinib 0.256 | [1] 0.071 | nilotinib -0.131 | [2] 0.204 | dasatinib 0.082 | [3] -0.031 | tipifarnib 0.138 | mubritinib 0.013 | [6] -0.006 | [7] 0.028 | [8] 0.079 | [9] 0.091 | entinostat 0.004 | vorinostat 0.005 | citarinostat -0.122 | silmitasertib -0.012 | [10] 0.071 | [11] -0.081

Taken from the listing (two entries):
MRPL3 (UniProt P09001)
inactive: bafetinib 0.245 | [1] 0.118 | nilotinib -0.112 | [2] 0.268 | dasatinib 0.033 | [3] -0.024 | [4] -0.142 | [5] -0.028 | tipifarnib 0.049 | mubritinib 0.049 | [6] 0.055 | [7] 0.08 | [8] -0.008 | [9] 0.087 | entinostat 0.009 | vorinostat 0.033 | citarinostat 0.011 | silmitasertib 0.013 | [10] 0.01 | [11] -0.055

MON2 isoform 5 (UniProt Q7Z3U7)
inactive: bafetinib -0.001 | [1] 0.026 | nilotinib -0.053 | [2] -0.012 | dasatinib -0.132 | [3] 0.082 | [4] 0.008 | [5] 0.006 | tipifarnib -0.071 | mubritinib -0.03 | [6] -0.023 | [7] 0.012 | [8] -0.107 | [9] -0.038 | entinostat -0.003 | vorinostat 0.097 | citarinostat 0.056 | silmitasertib 0.021 | [10] -0.006 | [11] -0.003

The results go on.

MLLT11 (UniProt Q13015)
inactive: bafetinib -0.01 | [1] -0.113 | nilotinib -0.067 | [2] 0.145 | dasatinib 0.016 | [3] -0.118 | [4] 0.173 | [5] 0.152 | tipifarnib 0.263 | mubritinib -0.089 | [6] 0.192 | [8] -0.075 | [9] 0.21 | entinostat 0.109 | vorinostat 0.05 | citarinostat 0.119 | silmitasertib -0.123 | [10] 0.012 | [11] -0.062

MPP1 (UniProt Q00013)
inactive: bafetinib 0.043 | [1] 0.035 | nilotinib 0.073 | [2] -0.179 | dasatinib -0.086 | [3] -0.019 | [4] 0.047 | [5] -0.023 | tipifarnib -0.04 | mubritinib 0.034 | [6] -0.083 | [7] -0.015 | [8] -0.159 | [9] -0.067 | entinostat 0.047 | vorinostat 0.093 | citarinostat 0.036 | silmitasertib 0.022 | [10] 0.027 | [11] -0.059

MRFAP1 (UniProt Q9Y605)
inactive: bafetinib -0.045 | [1] -0.08 | nilotinib -0.174 | [2] -0.064 | dasatinib -0.054 | [3] 0.051 | [4] -0.024 | [5] 0.011 | tipifarnib -0.261 | mubritinib -0.075 | [6] 0.134 | [7] 0.01 | [8] 0.021 | [9] -0.082 | entinostat 0.014 | vorinostat 0.15 | citarinostat 0.133 | silmitasertib -0.019 | [11] -0.028

MICB, A0A140T979
inactive: bafetinib 0.006 | [1] -0.108 | nilotinib -0.035 | [2] -0.015 | dasatinib -0.034 | [3] -0.022 | [4] -0.001 | [5] -0.08 | tipifarnib 0.099 | mubritinib 0.045 | [7] 0.045 | [8] -0.098 | [9] 0.076 | vorinostat -0.087 | citarinostat -0.002 | silmitasertib 0.021 | [10] 0.013 | [11] -0.059
